Record: PubChem BioAssay AID652272 (Drosophila RNAi Screening Center, 2013)
The screen tested about 21,000 reagents; below is a random part of those with a known target gene and a result. Of all reagents, 503 (2.4%) are marked active. 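Raw plate light values, not normalised; calls rest on replicate z-scores that were not deposited; hits include reporter decreases as well as increases.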 The record does not give: the amount of reagent, the time to read-out.

Screen: 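Finding fly genes that regulate Hedgehog signal transduction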 (primary screen)
System: Drosophila clone 8 (Cl8) cells
Reagents: long dsRNA against Drosophila genes
Detection: 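Plate reader light from a firefly reporter under a ptc promoter fragment that responds to Hedgehog, with Renilla light as transfection reference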
Direction: firefly Hh reporter signal: higher = more ptc reporter light; Renilla reference signal: higher = more Renilla control light
Hit rule: 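Called a hit if the two-replicate mean z-score lies below -2 or above +3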
Calls: active = hit: reporter lowered or raised; inactive = not a hit

| target | amplicon | firefly Hh reporter signal, replicate 1 | firefly Hh reporter signal, replicate 2 | firefly Hh reporter signal, replicate 3 | Renilla reference signal, replicate 1 | Renilla reference signal, replicate 2 | call |
| --- | --- | --- | --- | --- | --- | --- | --- |
| GstT1 | DRSC06243 | 1.21e5 | 63594 | – | 2979 | 4996 | inactive |
| CG30122 | DRSC06776 | 1.46e5 | 92672 | – | 6989 | 4249 | inactive |
| CG30122 | DRSC06935 | 1.24e5 | 58376 | – | 3968 | 5313 | inactive |
| Gpo2 | DRSC06822 | 1.23e5 | 49906 | – | 3111 | 4505 | inactive |
| CG3502 | DRSC04381 | 73408 | 67961 | – | 2857 | 2772 | inactive |
| Gp150 | DRSC04618 | 2.08e5 | 76979 | – | 5092 | 2050 | inactive |
| FucTB | DRSC02745 | 97799 | 48146 | – | 2695 | 5131 | inactive |
| mthl14 | DRSC07865 | 1.21e5 | 1.74e5 | – | 3405 | 6918 | inactive |
| CG10510 | DRSC11614 | 1.13e5 | 1.07e5 | – | 4257 | 3925 | inactive |
| Gpdh3 | DRSC15325 | 9.79e5 | 1.95e5 | – | 43491 | 4987 | inactive |
| CG4161 | DRSC01930 | 86658 | 67142 | – | 2324 | 6332 | inactive |
| ema | DRSC14536 | 1.01e5 | 1.14e5 | – | 2770 | 930 | inactive |
| Nepl19 | DRSC14875 | 5.04e5 | 77946 | – | 3159 | 3159 | inactive |
| AdamTS-A | DRSC14992 | 1.21e5 | 58189 | – | 5252 | 1863 | inactive |
| AdamTS-A | DRSC15966 | 1.31e5 | 1.97e5 | – | 4120 | 5683 | inactive |
| Cpr97Ea | DRSC15974 | 1.01e5 | 97985 | – | 3020 | 2850 | inactive |
| CG34451 | DRSC09388 | 2.72e5 | – | – | 6165 | – | inactive |
| CG34451 | DRSC09389 | 2.99e5 | – | – | 6791 | – | inactive |
| CG17283 | DRSC15219 | 54282 | 92440 | – | 1456 | 2832 | inactive |
| porin | DRSC03594 | 1.08e5 | 92653 | – | 4157 | 4093 | inactive |
| NetB | DRSC20262 | 1.37e5 | 63904 | – | 3105 | 1510 | inactive |
| CG1983 | DRSC15410 | 1.01e5 | 1.03e5 | – | 2128 | 2938 | inactive |
| S2P | DRSC07311 | 62352 | 63340 | – | 1735 | 4103 | inactive |
| Cys | DRSC16637 | 1.04e5 | 1.10e5 | – | 3515 | 3236 | inactive |
| CG13299 | DRSC09973 | 57345 | 51660 | – | 6441 | 3760 | inactive |
| CG5532 | DRSC04509 | 6.07e5 | 1.42e5 | – | 6293 | 6293 | inactive |
| CG15080 | DRSC06511 | 1.01e5 | 57588 | – | 1778 | 2788 | inactive |
| Cad86C | DRSC15587 | 1.32e5 | 2.14e5 | – | 3993 | 6120 | inactive |
| Cad86C | DRSC15611 | 44169 | 93596 | – | 1722 | 2784 | inactive |
| Polr1E | DRSC14506 | 5.05e5 | 80836 | – | 29100 | 1824 | inactive |
| Polr1E | DRSC15358 | 1.06e5 | 84396 | – | 4784 | 3777 | inactive |
| CG15099 | DRSC06528 | 99248 | 98131 | – | 5220 | 4033 | inactive |
| Kat60 | DRSC12378 | 84104 | 83254 | – | 3757 | 2384 | inactive |
| disco-r | DRSC20173 | 80520 | 2.31e5 | – | 2204 | 10064 | inactive |
| disco-r | DRSC20174 | 87863 | 2.27e5 | – | 2192 | 8763 | inactive |
| janB | DRSC16973 | 1.04e5 | 1.23e5 | – | 3689 | 3958 | inactive |
| SmF | DRSC07397 | 60473 | 35370 | – | 1921 | 3376 | inactive |
| CG31099 | DRSC14252 | 5.22e5 | 1.08e5 | – | 25649 | 3341 | inactive |
| CG1924 | DRSC19823 | 1.00e5 | 2.34e5 | – | 2741 | 10971 | inactive |
| CG31793 | DRSC02605 | 63336 | 34186 | – | 1889 | 3297 | inactive |
| sha | DRSC06331 | 99450 | 58576 | – | 2854 | 5069 | inactive |
| Spg7 | DRSC18469 | 49617 | 1.89e5 | – | 802 | 7904 | inactive |
| Jon66Cii | DRSC10778 | 45499 | 51664 | – | 5858 | 4176 | inactive |
| BCL7-like | DRSC17729 | 1.07e5 | 90533 | – | 2695 | 2336 | inactive |
| CG10948 | DRSC09806 | 39980 | 72633 | 59394 | 8131 | 4787 | inactive |
| spen | DRSC00839 | 1.15e5 | 67856 | – | 4778 | 3511 | inactive |
| CG10324 | DRSC14230 | 84251 | 99388 | – | 2539 | 2886 | inactive |
| CG5510 | DRSC15823 | 4.46e5 | 98771 | – | 24320 | 2875 | inactive |
| Grd | DRSC11178 | 1.04e5 | – | – | 3696 | 2982 | inactive |
| kcc | DRSC04316 | 1.09e5 | 81382 | – | 5066 | 3271 | inactive |
| kcc | DRSC04516 | 91260 | 61392 | – | 2729 | 5642 | inactive |
| l(1)10Bb | DRSC20346 | 52900 | 1.65e5 | – | 2001 | 8000 | inactive |
| Polr2F | DRSC12366 | 72825 | 95363 | – | 2260 | 2154 | inactive |
| CycB3 | DRSC16618 | 5.07e5 | 1.04e5 | – | 26243 | 3195 | inactive |
| Ggt-1 | DRSC19993 | 1.84e5 | 1.10e5 | – | 4246 | 2400 | inactive |
| Nthl1 | DRSC03183 | 96762 | 43442 | – | 2376 | 3489 | inactive |
| crb | DRSC16927 | 68714 | 35175 | – | 3680 | 1879 | inactive |
| CG3566 | DRSC18311 | 84780 | 2.47e5 | – | 2289 | 9552 | inactive |
| Mlp60A | DRSC04623 | 54925 | 49536 | – | 1077 | 4538 | inactive |
| pira | DRSC19494 | 95595 | 2.74e5 | – | 3746 | 10576 | inactive |
| CG34227 | DRSC06788 | 1.06e5 | 49673 | – | 2517 | 3520 | inactive |
| CG34227 | DRSC07034 | 1.01e5 | 62451 | – | 2770 | 4914 | inactive |
| CG9945 | DRSC07347 | 1.11e5 | 42584 | – | 3291 | 2979 | inactive |
| CG7126 | DRSC16201 | 5.22e5 | 74328 | – | 28496 | 1793 | inactive |
| Polr2A | DRSC20280 | 1.22e5 | 63202 | – | 2128 | 1495 | inactive |
| CG1847 | DRSC19810 | 1.55e5 | 97398 | – | 3590 | 2372 | inactive |
| Or22b | DRSC00765 | 1.30e5 | 84717 | – | 2784 | 2230 | inactive |
| CG7202 | DRSC11818 | 1.31e5 | 1.48e5 | – | 4531 | 4684 | inactive |
| cyp33 | DRSC07600 | 71499 | 69157 | – | 3832 | 3162 | inactive |
| Mcm3 | DRSC18679 | 92512 | 59463 | – | 2016 | 1361 | inactive |
| CG7484 | DRSC10853 | 81991 | – | – | 3440 | 2455 | inactive |
| CG4271 | DRSC00649 | 1.27e5 | 1.05e5 | – | 2984 | 2480 | inactive |
| bug | DRSC07137 | 86550 | 47510 | – | 4307 | 2010 | inactive |

Part of the list above, limited to “firefly Hh reporter signal, replicate 2”.
CG17283 [DRSC15219]: 92440
porin [DRSC03594]: 92653
NetB [DRSC20262]: 63904
CG1983 [DRSC15410]: 1.03e5
S2P [DRSC07311]: 63340
Cys [DRSC16637]: 1.10e5
CG13299 [DRSC09973]: 51660
CG5532 [DRSC04509]: 1.42e5
